This is an account of results in PubChem BioAssay AID180 (DTP/NCI, 2004).

For this assay, the system named is BDF1 mice, Adenocarcinoma 755 s.c., tumor weight T/C. In words: NCI In Vivo Anticancer Drug Screen. Data for tumor model Adenocarcinoma 755 (subcutaneous) in B6D2F1 (BDF1) mice. The following applies: T/C endpoint: mean tumor weight, evaluation day not shown, higher T/C = larger tumour. Here is the method:
The antitumor activity of compounds was measured in mice bearing transplantable tumors. Survival or tumor size were measured and the results are expressed as the measurement made in the treated group (T) divided by the measurement made in the vehicle treated control group (C). The tumor model used in this assay is Adenocarcinoma 755 (subcutaneous) in B6D2F1 (BDF1) mice

Setting [1] is: dose: 25.0 mg/kg/injection, schedule: Q01DX011 (ip), vehicle: carboxymethylcellulose (CMC).

SMILES strings stand for the structures. The list does not hold the whole screen: its compounds were picked by chemical class. Other doses and runs of a compound may be missing. T/C: endpoint of the treated group in % of that of the vehicle group. Some T/C values are marked as having no survivor count here; that says nothing about deaths at the dose. Schedule codes are those of the source, taken here to give the interval after Q, in days (D) or hours (H), and the number of doses after X. Some entries hold several experiments; the results are listed from low to high. Some schedules carry Z or #; the key to these is not given.

For the compound `CCCCOc1ccc(N(CCCl)CCCl)cc1`, the T/C was 101 % of control [survivor count not shown] (dose: 1.0 mg/kg/injection, schedule: Q01DX011 (ip), vehicle: carboxymethylcellulose (CMC)); 48 % of control [survivor count not shown] (dose: 1.4 mg/kg/injection, schedule: Q01DX011 (ip), vehicle: carboxymethylcellulose (CMC)); 32 % of control [survivor count not shown] (dose: 2.1 mg/kg/injection, schedule: Q01DX011 (ip), vehicle: methylcellulose (MC)); 53 % of control [survivor count not shown] (dose: 2.5 mg/kg/injection, schedule: Q01DX011 (ip), vehicle: methylcellulose (MC)); 60 % of control [survivor count not shown] (dose: 2.7 mg/kg/injection, schedule: Q01DX011 (ip), vehicle: carboxymethylcellulose (CMC)); 31 [survivor count not shown] and 40 % of control [survivor count not shown] (dose: 5.0 mg/kg/injection, schedule: Q01DX011 (ip), vehicle: methylcellulose (MC)). For the same compound, the T/C was 17 % of control [survivor count not shown] (dose: 5.3 mg/kg/injection, schedule: Q01DX011 (ip), vehicle: carboxymethylcellulose (CMC)); 23 % of control [survivor count not shown] (dose: 5.3 mg/kg/injection, schedule: Q01DX011 (ip), vehicle: methylcellulose (MC)); 62 % of control [survivor count not shown] (dose: 9.0 mg/kg/injection, schedule: Q01DX011 (ip), vehicle: carboxymethylcellulose (CMC)); 9 % of control [survivor count not shown] (dose: 10.5 mg/kg/injection, schedule: Q01DX011 (ip), vehicle: carboxymethylcellulose (CMC)); 1 % of control [survivor count not shown] (dose: 10.5 mg/kg/injection, schedule: Q01DX011 (ip), vehicle: methylcellulose (MC)); 3 % of control [survivor count not shown] (dose: 15.8 mg/kg/injection, schedule: Q01DX011 (ip), vehicle: carboxymethylcellulose (CMC)). Besides, the T/C (dose: 17.0 mg/kg/injection, schedule: Q01DX011 (ip), vehicle: carboxymethylcellulose (CMC)) was 51 % of control [survivor count not shown]; the T/C under setting [1] was 17 % of control [survivor count not shown]; the T/C (dose: 50.0 mg/kg/injection, schedule: Q01DX011 (ip), vehicle: carboxymethylcellulose (CMC)) is 39 % of control [survivor count not shown].

Take `NC(Cc1ccccc1N(CCCl)CCCl)C(=O)O` (centres undefined): the T/C (dose: 0.19 mg/kg/injection, schedule: Q#A X022 (ip), vehicle: carboxymethylcellulose (CMC)) is 59 % of control [survivor count not shown]; the T/C (dose: 0.25 mg/kg/injection, schedule: Q01DX011 (ip), vehicle: methylcellulose (MC)) was 66 % of control [survivor count not shown]; the T/C (dose: 0.37 mg/kg/injection, schedule: Q#A X022 (ip), vehicle: carboxymethylcellulose (CMC)) is 13 % of control [survivor count not shown]; the T/C (dose: 0.38 mg/kg/injection, schedule: Q01DX011 (ip), vehicle: carboxymethylcellulose (CMC)) is 63 % of control [survivor count not shown]; the T/C (dose: 0.38 mg/kg/injection, schedule: Q01DX011 (oral), vehicle: saline) was 62 % of control [survivor count not shown]; the T/C (dose: 0.5 mg/kg/injection, schedule: Q01DX011 (ip), vehicle: methylcellulose (MC)) is 17 % of control [survivor count not shown]. For the same compound, the T/C (dose: 0.75 mg/kg/injection, schedule: Q01DX011 (ip), vehicle: carboxymethylcellulose (CMC)) is 11 % of control [survivor count not shown]; the T/C (dose: 0.75 mg/kg/injection, schedule: Q01DX011 (oral), vehicle: saline) was 32 % of control [survivor count not shown]; the T/C (dose: 0.75 mg/kg/injection, schedule: Q#A X022 (ip), vehicle: carboxymethylcellulose (CMC)) is 3 % of control [survivor count not shown]; the T/C (dose: 1.0 mg/kg/injection, schedule: Q01DX011 (ip), vehicle: methylcellulose (MC)) is 5 % of control [survivor count not shown]; the T/C (dose: 1.14 mg/kg/injection, schedule: Q03DX004 (ip), vehicle: carboxymethylcellulose (CMC)) was 51 % of control [survivor count not shown]; the T/C (dose: 1.5 mg/kg/injection, schedule: Q01DX011 (ip), vehicle: carboxymethylcellulose (CMC)) was 2 % of control [survivor count not shown]. The T/C is, setting by setting: (dose: 1.5 mg/kg/injection, schedule: Q01DX011 (oral), vehicle: carboxymethylcellulose (CMC)) 10 % of control [survivor count not shown]; (dose: 1.5 mg/kg/injection, schedule: Q01DX011 (oral), vehicle: saline) 4 % of control [survivor count not shown]; (dose: 2.0 mg/kg/injection, schedule: Q01DX011 (ip), vehicle: methylcellulose (MC)) 5 % of control [survivor count not shown]; (dose: 2.25 mg/kg/injection, schedule: Q03DX004 (ip), vehicle: carboxymethylcellulose (CMC)) 18 % of control [survivor count not shown]; (dose: 3.0 mg/kg/injection, schedule: Q01DX011 (oral), vehicle: carboxymethylcellulose (CMC)) 1 % of control [survivor count not shown]; (dose: 3.0 mg/kg/injection, schedule: Q01DX011 (oral), vehicle: saline) 3 % of control [survivor count not shown].

With `NC1CCCCC1.NP(=O)(O)N(CCCl)CCCl`, the T/C by setting is: (dose: 8.0 mg/kg/injection, schedule: Q01DX011 (ip), vehicle: saline) 76 % of control [survivor count not shown]; (dose: 16.0 mg/kg/injection, schedule: Q01DX011 (ip), vehicle: saline) 69 % of control [survivor count not shown]; (dose: 32.0 mg/kg/injection, schedule: Q01DX011 (ip), vehicle: saline) 19 % of control [survivor count not shown].

On to `ClCCNC(CCl)CCl`, for which the T/C is 69 % of control [survivor count not shown] (dose: 0.78 mg/kg/injection, schedule: Q01DX011 (ip), vehicle: carboxymethylcellulose (CMC)); 74 % of control [survivor count not shown] (dose: 1.56 mg/kg/injection, schedule: Q01DX011 (ip), vehicle: carboxymethylcellulose (CMC)); 94 % of control [survivor count not shown] (dose: 3.12 mg/kg/injection, schedule: Q01DX011 (ip), vehicle: carboxymethylcellulose (CMC)); 33 [survivor count not shown] and 68 % of control [survivor count not shown] (dose: 6.25 mg/kg/injection, schedule: Q01DX011 (ip), vehicle: carboxymethylcellulose (CMC)); 39 % of control [survivor count not shown] (dose: 12.5 mg/kg/injection, schedule: Q01DX011 (ip), vehicle: carboxymethylcellulose (CMC)); 13 % of control [survivor count not shown] under setting [1]. For the same compound, the T/C by setting is: (dose: 25.0 mg/kg/injection, schedule: Q01DX011 (ip), vehicle: saline) 86 % of control [survivor count not shown]; (dose: 50.0 mg/kg/injection, schedule: Q01DX011 (ip), vehicle: saline) 35 % of control [survivor count not shown]; (dose: 100.0 mg/kg/injection, schedule: Q01DX011 (ip), vehicle: saline) 1 % of control [survivor count not shown].

Take `COc1cccc(N(CCCl)CCCl)c1OC`: the T/C is, setting by setting: (dose: 7.5 mg/kg/injection, schedule: Q01DX011 (ip), vehicle: carboxymethylcellulose (CMC)) 82 % of control [survivor count not shown]; (dose: 15.0 mg/kg/injection, schedule: Q01DX011 (ip), vehicle: carboxymethylcellulose (CMC)) 125 % of control [survivor count not shown]; (dose: 30.0 mg/kg/injection, schedule: Q01DX011 (ip), vehicle: carboxymethylcellulose (CMC)) 105 % of control [survivor count not shown]; (dose: 60.0 mg/kg/injection, schedule: Q01DX011 (ip), vehicle: carboxymethylcellulose (CMC)) 58 % of control [survivor count not shown].
